PubChem BioAssay AID1487 (National Center for Advancing Translational Sciences (NCATS), 2009)
Out of some 200,000 compounds screened, about 25 (0.01%) were called active. Inconclusive results, whose numbers are uncertain, are shown with a selection of clear calls. Calls come from the whole dose curve; as a rule, active = well fitted inhibition curve with a large enough effect in the signal ratio, with a control signal flat (not every such curve was filed as active); inconclusive = small, poorly fitted or top-dose-only effect, or effect the other way, or a change in a side signal; inactive = flat fitted curve, though single readings scatter; the % refers to the signal ratio. Potencies of inconclusive entries are doubtful fits and often do not repeat.

Assay: qHTS Assay for Modulators of Lamin A Splicing
Settings: HeLa LMNA splicing GFP/RFP minigene ratio, 48 h; ratio change, negative = inhibition: at 46.1 µM (top of the series) unless noted
Outline: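 S3 HeLa cells stably expressing lamin A-EGFP splicing minigene plus DsRed2, 600 cells/well, 48 h compound exposure at 37C. Laser-scanning cytometry; analysed as GFP (500-530 nm)/RFP (575-640 nm) total intensity ratio; 0.5% DMSO vehicle.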
% is set by controls: 0 for no effect and ±100 for the full control effect; potency is the fitted concentration of half-maximal effect.

Row | Compound | Potency | ratio change, negative = inhibition
1 | C=CCn1c(=O)c(C(=O)NCCc2ccccc2)c(O)c2ccccc21 | inconclusive: 35.5 µM [falling, single point] | 
2 | CC(=O)Nc1c(Nc2ccccc2)c2ccccc2oc1=O |  | inconclusive: 7.78% [at 46 µM]
3 | COc1ccc(NC(=S)SC)cc1OC |  | inconclusive: 23.5%
4 | CC(C)c1cc(C(=O)Nc2sc3c(c2C#N)CCC3)no1 |  | inconclusive: -23.1%
5 | Cc1cccc(N(C(=O)Nc2ccc(Cl)cc2)C2=NCC(C)S2)n1 (stereo not given) |  | inactive
6 | Cc1ccc(OCc2ccc(-c3nc(C#N)c(NCc4ccccc4Cl)o3)o2)cc1 |  | inconclusive: 66% [at 46 µM]
7 | Cc1cccc(N2CCN(C(=O)CCCOc3ccccc3)CC2)c1C |  | inconclusive: -32%
8 | Cc1cccc2c(C(=O)N3CCN(C(=O)c4ccco4)CC3)cc(-c3cccc(Br)c3)nc12 |  | inconclusive: 37.4% [at 46 µM]
9 | Cc1ccsc1C(=O)Nc1cccc(S(=O)(=O)N(C)C)c1 |  | inconclusive: -5.91%
10 | O=C(Nc1ccccc1C(F)(F)F)N1CCC(CN2CCc3ccccc3C2)CC1 |  | inconclusive: 8.24% [at 46 µM]
11 | Cc1cc(C)cc(-n2c(SCC(N)=O)nc3c([nH]c4ccccc43)c2=O)c1 |  | inconclusive: -21.6% [at 46 µM]
12 | COc1cc([N+](=O)[O-])ccc1NC(=O)CN(C)C |  | inactive
13 | O=C(O)c1ccc(NS(=O)(=O)c2ccc3c(c2)OCCCO3)cc1 |  | inconclusive: 2.76% [at 46 µM]
14 | O=C(Nc1ccc(-n2nncc2-c2ccco2)cc1)c1cc2ccccc2oc1=O | inconclusive: 35.5 µM [cytotoxic, single point] | 
15 | Cc1cc(C)cc(-n2c(SCC(=O)N3CCOCC3)nc3c([nH]c4ccccc43)c2=O)c1 |  | inconclusive: -7.41% [at 46 µM]
16 | COc1ccc(OCCC(=O)OCC(=O)NCc2ccc(F)cc2)cc1 |  | inconclusive: -16% [at 46 µM]
17 | Cc1nc2ccn(Cc3cccs3)c(=O)c2cc1C(=O)N1CCN(c2ccccc2F)CC1 |  | inconclusive: -13.4% [at 46 µM]
18 | CCOC(=O)CC(=O)CSc1nc2ccsc2c(=O)n1Cc1ccccc1 |  | inconclusive: 16.4% [at 46 µM]
19 | COc1ccc(C(CCNCc2ccccc2F)c2ccc(F)cc2)cc1 (stereo not given) |  | inconclusive: -29.2%
20 | COc1ccc(NC(=O)c2cc3c(s2)CCC(C)C3)cc1S(=O)(=O)N1CCOCC1 (stereo not given) | inconclusive: 3.16 µM [falling, full curve, poor fit] | 
21 | COC(=O)c1ccc(Oc2c(C)oc3cc(OCc4cnn(-c5ccccc5)c4)ccc3c2=O)cc1 |  | inactive
22 | C=CCn1c(SCc2ccc(C(=O)OC)cc2)nnc1-c1sc(N)nc1C |  | inconclusive: -4.04%
23 | COc1cccc(CN2CCN(c3cccc(C(F)(F)F)c3)CC2)c1OC |  | inactive
24 | C=CCn1c(=S)[nH]c2scc(-c3cccs3)c2c1=O | inconclusive: 35.5 µM [activator, single point] | 
25 | O=C(OCc1cc([N+](=O)[O-])cc2c1OCOC2)c1ccc2ccccc2n1 |  | inconclusive: -17.6% [at 46 µM]

Row | Compound | Potency | ratio change, negative = inhibition
26 | O=C(/C=C/c1ccccc1)NCCOc1ccccc1 |  | inconclusive: 6.5%
27 | O=C1c2cccc(OCC(=O)N3CCCc4ccccc43)c2CCN1Cc1ccccc1 |  | inconclusive: -27%
28 | CCOC(=O)c1cc(-c2ccccc2)n(CCC(=O)N2CCN(c3ccccc3OC)CC2)c1C | inconclusive: 25.1 µM [inhibitor, single point] | 
29 | COc1ccccc1N1CCN(CCCNC(=O)c2cnn(-c3cccc(Cl)c3)c2C2CCN(C(=O)OC(C)(C)C)CC2)CC1 |  | inconclusive: 2.42% [at 46 µM]
30 | COc1cc(CNCc2c[nH]c3ccccc23)cc(OC)c1 |  | inconclusive: 2.98% [at 46 µM]
31 | CCOC(=O)c1ccc(NS(=O)(=O)CC)cc1 |  | inactive
32 | CC1=NN(c2ccccc2)C(=O)/C1=C\c1cc(C)n(-c2ccccc2)c1C |  | inactive
33 | CCCCN(c1ccccc1)c1ncnc2nc[nH]c12 |  | inactive
34 | Nc1nc(SCC(=O)Nc2ccccc2Oc2ccccc2)n[nH]1 |  | inconclusive: 2.93%
35 | Cc1ccc2[nH]c(=O)c(CN(Cc3ccccc3)Cc3nnnn3C3CCCC3)cc2c1 | inconclusive: 12.6 µM [inhibitor, partial curve] | 
36 | CCC(C)NS(=O)(=O)c1ccc(NC(=O)C(Sc2ccccc2)c2ccccc2)cc1 (stereo not given) | inconclusive: 35.5 µM [falling, single point] | 
37 | CC(C)(C)NC[C@H](O)COc1cccc2c1CCC(=O)N2 |  | inconclusive: -9.71%
38 | Cc1cc(C)n2cc(CSc3nncn3C)nc2n1 |  | inconclusive: -11.5% [at 46 µM]
39 | COc1ccc(C(=O)Nc2nnc(SCc3cc(=O)c4cc(C)cc(C)c4[nH]3)s2)cc1 |  | inactive
40 | C/C(N)=C(/C#N)C(=O)CSc1nc2scc(-c3ccccc3)c2c(=O)n1C |  | inconclusive: -17.8% [at 46 µM]
41 | Cc1cc(NC(=O)COC(=O)C(Nc2ccc(C(F)(F)F)cc2Cl)C(C)C)no1 (stereo not given) | inconclusive: 35.5 µM [inhibitor, single point] | 
42 | CSC(=Nc1ccc(Cl)cc1)N[n+]1ccccc1 |  | inconclusive: 2.18%
43 | CN1CCC(N(C)C(=O)CCc2nc3ccccc3c(=O)[nH]2)CC1 |  | inconclusive: 7.71%
44 | Cc1ccc2c(c1)c1c(n2CC(O)Cn2c(C)nc3ccccc32)/C(=N\O)CCC1 (stereo not given) | inconclusive: 22.4 µM [inhibitor, single point] | 
45 | CCS(=O)(=O)NCCc1cc2c(OC)ccc(OC)c2[nH]c1=O |  | inactive
46 | O=C(NCCCn1ccnc1)C(F)(F)C(F)(F)C(=O)NCCCn1ccnc1 |  | inactive
47 | COc1ccc(-c2cc(C(=O)O)nc3ccc4ccccc4c23)cc1OC |  | inconclusive: 11.8% [at 46 µM]
48 | Cc1nn(Cc2ccccc2)c(C)c1N |  | inactive
49 | C[C@H]1Cc2c(COc3ccccc3)nc3c(c2CO1)CN(C(=O)c1cc(I)ccc1F)CC3 |  | inactive: 6.63% [at 9.22 µM]
50 | Cc1ccc(NC(=O)CN2C(=O)CCn3nc(-c4cccn4C)cc32)cc1 |  | inactive

Single values from the entries so far:
Entry of Cc1ccc2[nH]c(=O)c(CN(Cc3ccccc3)Cc3nnnn3C3CCCC3)cc2c1 under Potency: inconclusive: 12.6 µM [inhibitor, partial curve]
Entry of Cc1ccsc1C(=O)Nc1cccc(S(=O)(=O)N(C)C)c1 under ratio change, negative = inhibition: inconclusive: -5.91%
